# From the supplement of paper PMC8728848
# The other results are listed elsewhere or left out.
# Experiments:
# Test in all cases: glycan array binding signal (z-score within array); higher = stronger binding
# Conditions in all cases: glycan notation: IUPAC condensed, linker removed
# [1] = molecular target: GlcNAc(b1-2)Gal(b1-3)GalNAc
# Summary of the method: (§1)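 The Consortium for Functional Glycomics database supplied 3228 glycan arrays, of which those lacking an available protein sequence were dropped. The binding signal, a within-array Z-score, was averaged across arrays of the same protein sequence and across linkers. Negative scores can be read as non-binding.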
# [2] = molecular target: GlcNAc(b1-2)Man(a1-3)[GlcNAc(b1-2)Man(a1-6)]Man(b1-4)GlcNAc(b1-4)GlcNAc
# Summary of the method: as §1
# [3] = molecular target: GlcNAc(b1-2)Man(a1-3)[GlcNAc(b1-2)Man(a1-6)]Man(b1-4)GlcNAc(b1-4)[Fuc(a1-6)]GlcNAc
# Summary of the method: as §1
# [4] = molecular target: GlcNAc(b1-2)Man(a1-3)[GlcNAc(b1-4)][GlcNAc(b1-2)Man(a1-6)]Man(b1-4)GlcNAc(b1-4)GlcNAc
# Summary of the method: as §1
# [5] = molecular target: GlcNAc(b1-2)Man(a1-3)[GlcNAc(b1-4)][GlcNAc(b1-2)Man(a1-6)]Man(b1-4)GlcNAc(b1-4)[Fuc(a1-6)]GlcNAc
# Summary of the method: as §1
# [6] = molecular target: GlcNAc(b1-2)[GlcNAc(b1-4)]Man(a1-3)[GlcNAc(b1-2)Man(a1-6)]Man(b1-4)GlcNAc(b1-4)GlcNAc
# Summary of the method: as §1
# [7] = molecular target: GlcNAc(b1-2)[GlcNAc(b1-4)]Man(a1-3)[GlcNAc(b1-4)][GlcNAc(b1-2)Man(a1-6)]Man(b1-4)GlcNAc(b1-4)GlcNAc
# Summary of the method: as §1
# [8] = molecular target: GlcNAc(b1-2)[GlcNAc(b1-4)]Man(a1-3)[GlcNAc(b1-4)][GlcNAc(b1-2)[GlcNAc(b1-6)]Man(a1-6)]Man(b1-4)GlcNAc(b1-4)GlcNAc
# Summary of the method: as §1
# [9] = molecular target: GlcNAc(b1-2)[GlcNAc(b1-4)]Man(a1-3)[GlcNAc(b1-4)][GlcNAc(b1-2)[GlcNAc(b1-6)]Man(a1-6)]Man(b1-4)GlcNAc(b1-4)[Fuc(a1-6)]GlcNAc
# Summary of the method: as §1
# [10] = molecular target: GlcNAc(b1-2)[GlcNAc(b1-6)]Man(a1-6)[GlcNAc(b1-2)Man(a1-3)]Man(b1-4)GlcNAc(b1-4)GlcNAc
# Summary of the method: as §1
# [11] = molecular target: GlcNAc(b1-2)[GlcNAc(b1-6)]Man(a1-6)[GlcNAc(b1-2)Man(a1-3)]Man(b1-4)GlcNAc(b1-4)[Fuc(a1-6)]GlcNAc
# Summary of the method: as §1
# [12] = molecular target: GlcNAc(b1-2)[GlcNAc(b1-6)]Man(a1-6)[GlcNAc(b1-4)][GlcNAc(b1-2)Man(a1-3)]Man(b1-4)GlcNAc(b1-4)GlcNAc
# Summary of the method: as §1
# [13] = molecular target: GlcNAc(b1-3)Fuc
# Summary of the method: as §1
# [14] = molecular target: GlcNAc(b1-3)Gal
# Summary of the method: as §1
# [15] = molecular target: GlcNAc(b1-3)Gal(b1-3)GalNAc
# Summary of the method: as §1
# [16] = molecular target: GlcNAc(b1-3)Gal(b1-4)Glc
# Summary of the method: as §1
# [17] = molecular target: GlcNAc(b1-3)Gal(b1-4)GlcNAc
# Summary of the method: as §1
# [18] = molecular target: GlcNAc(b1-3)Gal(b1-4)GlcNAc(b1-2)Man(a1-3)[GlcNAc(b1-3)Gal(b1-4)GlcNAc(b1-2)Man(a1-6)]Man(b1-4)GlcNAc(b1-4)GlcNAc
# Summary of the method: as §1
# [19] = molecular target: GlcNAc(b1-3)Gal(b1-4)GlcNAc(b1-2)Man(a1-3)[GlcNAc(b1-3)Gal(b1-4)GlcNAc(b1-2)Man(a1-6)]Man(b1-4)GlcNAc(b1-4)[Fuc(a1-6)]GlcNAc
# Summary of the method: as §1
# [20] = molecular target: GlcNAc(b1-3)Gal(b1-4)GlcNAc(b1-2)[GlcNAc(b1-3)Gal(b1-4)GlcNAc(b1-6)]Man(a1-6)[GlcNAc(b1-3)Gal(b1-4)GlcNAc(b1-2)Man(a1-3)]Man(b1-4)GlcNAc(b1-4)GlcNAc
# Summary of the method: as §1
# [21] = molecular target: GlcNAc(b1-3)Gal(b1-4)GlcNAc(b1-3)Gal(b1-4)GlcNAc
# Summary of the method: as §1
# [22] = molecular target: GlcNAc(b1-3)Gal(b1-4)GlcNAc(b1-3)Gal(b1-4)GlcNAc(b1-2)Man(a1-3)[GlcNAc(b1-3)Gal(b1-4)GlcNAc(b1-3)Gal(b1-4)GlcNAc(b1-2)Man(a1-6)]Man(b1-4)GlcNAc(b1-4)GlcNAc
# Summary of the method: as §1
# [23] = molecular target: GlcNAc(b1-3)Gal(b1-4)GlcNAc(b1-3)Gal(b1-4)GlcNAc(b1-2)Man(a1-3)[GlcNAc(b1-3)Gal(b1-4)GlcNAc(b1-3)Gal(b1-4)GlcNAc(b1-2)Man(a1-6)]Man(b1-4)GlcNAc(b1-4)[Fuc(a1-6)]GlcNAc
# Summary of the method: as §1
# [24] = molecular target: GlcNAc(b1-3)Gal(b1-4)GlcNAc(b1-3)Gal(b1-4)GlcNAc(b1-2)[GlcNAc(b1-3)Gal(b1-4)GlcNAc(b1-3)Gal(b1-4)GlcNAc(b1-6)]Man(a1-6)[GlcNAc(b1-3)Gal(b1-4)GlcNAc(b1-3)Gal(b1-4)GlcNAc(b1-2)Man(a1-3)]Man(b1-4)GlcNAc(b1-4)[Fuc(a1-6)]GlcNAc
# Summary of the method: as §1
# [25] = molecular target: GlcNAc(b1-3)Gal(b1-4)GlcNAc(b1-3)Gal(b1-4)GlcNAc(b1-3)Gal(b1-4)GlcNAc(b1-2)Man(a1-3)[GlcNAc(b1-3)Gal(b1-4)GlcNAc(b1-3)Gal(b1-4)GlcNAc(b1-3)Gal(b1-4)GlcNAc(b1-2)Man(a1-6)]Man(b1-4)GlcNAc(b1-4)GlcNAc
# Summary of the method: as §1
# [26] = molecular target: GlcNAc(b1-3)Gal(b1-4)GlcNAc(b1-3)Gal(b1-4)GlcNAc(b1-3)Gal(b1-4)GlcNAc(b1-2)Man(a1-3)[GlcNAc(b1-3)Gal(b1-4)GlcNAc(b1-3)Gal(b1-4)GlcNAc(b1-3)Gal(b1-4)GlcNAc(b1-2)Man(a1-6)]Man(b1-4)GlcNAc(b1-4)[Fuc(a1-6)]GlcNAc
# Summary of the method: as §1
# [27] = molecular target: GlcNAc(b1-3)Gal(b1-4)GlcNAc(b1-3)Gal(b1-4)GlcNAc(b1-3)Gal(b1-4)GlcNAc(b1-2)[GlcNAc(b1-3)Gal(b1-4)GlcNAc(b1-3)Gal(b1-4)GlcNAc(b1-3)Gal(b1-4)GlcNAc(b1-6)]Man(a1-6)[GlcNAc(b1-3)Gal(b1-4)GlcNAc(b1-3)Gal(b1-4)GlcNAc(b1-3)Gal(b1-4)GlcNAc(b1-2)Man(a1-3)]Man(b1-4)GlcNAc(b1-4)[Fuc(a1-6)]GlcNAc
# Summary of the method: as §1
# [28] = molecular target: GlcNAc(b1-3)Gal(b1-4)GlcNAc(b1-3)Gal(b1-4)GlcNAc(b1-3)Gal(b1-4)GlcNAc(b1-3)Gal(b1-4)GlcNAc(b1-2)Man(a1-3)[GlcNAc(b1-3)Gal(b1-4)GlcNAc(b1-3)Gal(b1-4)GlcNAc(b1-3)Gal(b1-4)GlcNAc(b1-3)Gal(b1-4)GlcNAc(b1-2)Man(a1-6)]Man(b1-4)GlcNAc(b1-4)GlcNAc
# Summary of the method: as §1
# [29] = molecular target: GlcNAc(b1-3)Gal(b1-4)GlcNAc(b1-3)Gal(b1-4)GlcNAc(b1-3)Gal(b1-4)GlcNAc(b1-3)Gal(b1-4)GlcNAc(b1-2)Man(a1-3)[GlcNAc(b1-3)Gal(b1-4)GlcNAc(b1-3)Gal(b1-4)GlcNAc(b1-3)Gal(b1-4)GlcNAc(b1-3)Gal(b1-4)GlcNAc(b1-2)Man(a1-6)]Man(b1-4)GlcNAc(b1-4)[Fuc(a1-6)]GlcNAc
# Summary of the method: as §1
# [30] = molecular target: GlcNAc(b1-3)Gal(b1-4)GlcNAc(b1-3)Gal(b1-4)GlcNAc(b1-3)Gal(b1-4)GlcNAc(b1-3)Gal(b1-4)GlcNAc(b1-2)[GlcNAc(b1-3)Gal(b1-4)GlcNAc(b1-3)Gal(b1-4)GlcNAc(b1-3)Gal(b1-4)GlcNAc(b1-3)Gal(b1-4)GlcNAc(b1-6)]Man(a1-6)[GlcNAc(b1-3)Gal(b1-4)GlcNAc(b1-3)Gal(b1-4)GlcNAc(b1-3)Gal(b1-4)GlcNAc(b1-3)Gal(b1-4)GlcNAc(b1-2)Man(a1-3)]Man(b1-4)GlcNAc(b1-4)[Fuc(a1-6)]GlcNAc
# Summary of the method: as §1
binder,measurement,setting,value
"CD4 (Rattus norvegicus), P05540 (protein) MCRGFSFRHLLPLLLLQLSKLLVVTQGSTSITAYKSEGESAEFSFPLNLGEESLQGELRWKAEKAPSSQSWITFSLKNQKVSVQKSTSNPKFQLSETLPLTLQIPQVSLQFAGSGNLTLTLDRGILYQEVNLVVMKVTQPDSNTLTCEVMGPTSPKMRLILKQENQEARVSRQEKVIQVQAPEAGVWQCLLSEGEEVKMDSKIQVLSKGLNSGGGSGGGTGGGDLAPQMLRELQETNAALQDVRELLRQQVKEITFLKNTVMECDACGLDRNLPPLAPLGPHPETLVKVKDAEDQLGARVGYIELDLNSGKILESFRPEERFPMMSTFKVLLCGAVLSRIDAGQEQLGRRIHYSQNDLVEYSPVTEKHLTDGMTVRELCSAAITMSDNTAANLLLTTIGGPKELTAFLHNMGDHVTRLDRWEPELNEAIPNDERDTTMPVAMATTLRKLLTGELLTLASRQQLIDWMEADKVAGPLLRSALPAGWFIADKSGAGERGSRGIIAALGPDGKPSRIVVIYTTGSQATMDERNRQIAEIGASLIKHW",glycan array binding signal (z-score),[1],-0.319
same,glycan array binding signal (z-score),[2],0.084
same,glycan array binding signal (z-score),[3],0.756
same,glycan array binding signal (z-score),[4],-0.906
same,glycan array binding signal (z-score),[5],0.753
same,glycan array binding signal (z-score),[6],0.532
same,glycan array binding signal (z-score),[7],-0.934
same,glycan array binding signal (z-score),[8],-1.14
same,glycan array binding signal (z-score),[9],-0.043
same,glycan array binding signal (z-score),[10],-0.024
same,glycan array binding signal (z-score),[11],-0.931
same,glycan array binding signal (z-score),[12],-0.474
same,glycan array binding signal (z-score),[13],0.655
same,glycan array binding signal (z-score),[14],0.336
same,glycan array binding signal (z-score),[15],1.01
same,glycan array binding signal (z-score),[16],-1.35
same,glycan array binding signal (z-score),[17],-0.866
same,glycan array binding signal (z-score),[18],0.029
same,glycan array binding signal (z-score),[19],-0.556
same,glycan array binding signal (z-score),[20],1.36
same,glycan array binding signal (z-score),[21],-0.812
same,glycan array binding signal (z-score),[22],0.82
same,glycan array binding signal (z-score),[23],1.85
same,glycan array binding signal (z-score),[24],-1.38
same,glycan array binding signal (z-score),[25],-0.119
same,glycan array binding signal (z-score),[26],-0.855
same,glycan array binding signal (z-score),[27],-0.01
same,glycan array binding signal (z-score),[28],0.209
same,glycan array binding signal (z-score),[29],-0.266
same,glycan array binding signal (z-score),[30],0.345

# 2 records drawn at random from those above:
binder,measurement,setting,value
"CD4 (Rattus norvegicus), P05540 (protein) MCRGFSFRHLLPLLLLQLSKLLVVTQGSTSITAYKSEGESAEFSFPLNLGEESLQGELRWKAEKAPSSQSWITFSLKNQKVSVQKSTSNPKFQLSETLPLTLQIPQVSLQFAGSGNLTLTLDRGILYQEVNLVVMKVTQPDSNTLTCEVMGPTSPKMRLILKQENQEARVSRQEKVIQVQAPEAGVWQCLLSEGEEVKMDSKIQVLSKGLNSGGGSGGGTGGGDLAPQMLRELQETNAALQDVRELLRQQVKEITFLKNTVMECDACGLDRNLPPLAPLGPHPETLVKVKDAEDQLGARVGYIELDLNSGKILESFRPEERFPMMSTFKVLLCGAVLSRIDAGQEQLGRRIHYSQNDLVEYSPVTEKHLTDGMTVRELCSAAITMSDNTAANLLLTTIGGPKELTAFLHNMGDHVTRLDRWEPELNEAIPNDERDTTMPVAMATTLRKLLTGELLTLASRQQLIDWMEADKVAGPLLRSALPAGWFIADKSGAGERGSRGIIAALGPDGKPSRIVVIYTTGSQATMDERNRQIAEIGASLIKHW",glycan array binding signal (z-score),[30],0.345
same,glycan array binding signal (z-score),[8],-1.14
